# In all, about 33,000 sequences were measured (“E-score (-0.5 to 0.5)”: median about -0.016, highest 2% from about 0.3 on). Some of the results follow.
# Target: T1, Yer184c (UniProt P39961)
# T1 sequence: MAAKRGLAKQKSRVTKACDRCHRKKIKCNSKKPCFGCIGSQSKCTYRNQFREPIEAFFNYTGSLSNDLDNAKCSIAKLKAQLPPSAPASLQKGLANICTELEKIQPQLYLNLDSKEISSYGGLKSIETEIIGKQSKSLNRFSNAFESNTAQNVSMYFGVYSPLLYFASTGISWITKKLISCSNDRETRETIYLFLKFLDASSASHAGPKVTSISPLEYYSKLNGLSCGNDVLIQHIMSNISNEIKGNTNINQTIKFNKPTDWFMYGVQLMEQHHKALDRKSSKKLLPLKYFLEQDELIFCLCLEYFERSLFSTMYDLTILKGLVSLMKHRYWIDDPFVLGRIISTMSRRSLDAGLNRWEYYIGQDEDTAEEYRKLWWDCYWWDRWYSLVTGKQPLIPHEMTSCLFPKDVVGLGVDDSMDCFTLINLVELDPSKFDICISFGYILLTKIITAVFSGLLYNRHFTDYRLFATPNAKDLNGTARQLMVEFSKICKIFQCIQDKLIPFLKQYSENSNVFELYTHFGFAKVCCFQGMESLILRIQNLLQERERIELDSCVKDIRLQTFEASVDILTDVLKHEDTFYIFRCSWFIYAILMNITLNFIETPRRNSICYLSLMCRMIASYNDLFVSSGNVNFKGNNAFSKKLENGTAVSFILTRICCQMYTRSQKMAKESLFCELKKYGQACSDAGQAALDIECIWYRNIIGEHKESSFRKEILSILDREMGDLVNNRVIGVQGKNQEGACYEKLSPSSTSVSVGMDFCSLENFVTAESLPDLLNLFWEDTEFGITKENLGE
# Experiment: PBM E-score (8-mer binding enrichment) (E-score (-0.5 to 0.5)); higher = stronger / more preferred TF binding
# Settings: protein concentration: 100 nM; construct: GST-full length
# Procedure, shortened: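 Yeast transcription factors carrying a GST tag, as full-length proteins or DNA-binding domains, were produced by PURExpress in vitro transcription/translation. About 100-200 nM protein was applied to universal all-10-mer Agilent arrays, double-stranded by primer extension on fresh or once-stripped slides. Bound protein was detected with fluorescent anti-GST, and scans were normalised with masliner. The Universal PBM Analysis Suite gave each ungapped eight-base word, pooled with its reverse complement, an E-score, a modified Wilcoxon-Mann-Whitney statistic.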
row,Sequence,PBM E-score
1,CAAAACCC,0.0404
2,AGTAGCAA,0.136
3,CGCGCCAC,-0.195
4,AGACCCAA,-0.134
5,CCAGCGTC,-0.238
6,CACTCATC,-0.0372
7,GACAATGC,0.0484
8,GAGATCCA,-0.00309
9,CGCGATCC,0.0446
10,TAGTTATA,0.0764
11,ACACGAAA,0.126
12,GTCAATTA,0.0244
13,ACGGTGCG,0.0873
14,GGCAACAA,0.029
15,AGAGATTC,0.0419
16,AGATCTGG,-0.239
17,AATTCCGA,0.389
18,GTCACTGA,-0.0419
19,CATCTTCG,0.109
20,TATTGTCA,0.107
21,ATTCTGAG,0.0545
22,ATTTCACA,0.114
23,ACATGCCT,-0.0851
24,ACCGCCGA,0.263
25,CTTACAAA,0.181

row,Sequence,PBM E-score
1,ACGTCTAC,-0.263
2,CCAGAGCG,-0.253
3,AAATCCCC,-0.298
4,CTAACTAA,0.0559
5,AGCCTGAA,-0.0147
6,ATGCTCGC,-0.082
7,AACTTGGC,-0.0881
8,GTGGGCAA,-0.188
9,AAGTCGCC,-0.0835
10,CAGGCAAA,0.0666
11,GCGCTAAC,0.142
12,CCTGGACC,-0.164
13,ACCCCACG,-0.274
14,ATCGGAAC,0.291
15,AACGCCTA,-0.149
16,ACACACTC,-0.0517
17,CATGAATA,-0.179
18,ATCACACA,0.0284
19,CATCGACA,-0.0913
20,AAGTGTGG,0.0318
21,AGTCCTCG,-0.167
22,AGGCCTGC,-0.163
23,GGAGCGGA,0.0206
24,ACCCCGAG,0.0399
25,CGGGAACG,0.0157

row,Sequence,PBM E-score
1,ACTCCCTC,-0.237
2,ACTGACGG,-0.165
3,ACCATTGG,-0.0691
4,GACGCATA,0.0516
5,GACGTACA,-0.00237
6,GTTTCAGA,0.0364
7,ACCCAAGA,-0.124
8,AGCGAGCC,0.0799
9,AGAGAGTC,-0.246
10,CCGTCGGC,0.225
11,CAACCCGG,0.0605
12,TGATCAAA,0.00122
13,ATAGTAAA,0.0797
14,GAAATAGC,0.166
15,AACCGCCA,-0.161
16,CCAGTCAC,-0.244
17,CTGCGGCA,0.0669
18,CGTTACCC,-0.104
19,ATGCTAAC,-0.106
20,ACTCCGAC,0.194
21,CCACCTAA,-0.111
22,AGACCGCT,-0.0165
23,CTCAGAAG,-0.0924
24,CATAACAA,0.215
25,ACGGGTGG,-0.261

row,Sequence,PBM E-score
1,AAAATTGC,0.00018
2,CATCGAGA,-0.0427
3,ATGGTTCC,0.17
4,CAATGGTG,-0.322
5,CAACTTGC,-0.253
6,GTGGGAGA,-0.281
7,CGACCGAG,0.238
8,AAAATGTC,0.12
9,CGCGCACA,0.112
10,AGCTCTGG,-0.169
11,CCTACACA,-0.00136
12,ACCCATCG,-0.162
13,TCAGCTGA,0.115
14,ACTTTGCG,-0.0587
15,ATGAGCAG,-0.0805
16,ACCATCCG,0.0482
17,ATGCCGGG,0.244
18,ACGGTAGA,-0.0773
19,AGACAACG,0.029
20,CGGATGAG,0.171
21,AATTATAC,0.283
22,AAAAGAGA,-0.0282
23,ACACATAT,0.00024
24,CACTAAGG,-0.0433
25,CTGAGGTA,0.0423

# Rewritten bar-delimited: part of the list above
row | Sequence | PBM E-score
13 | TCAGCTGA | 0.115
16 | ACCATCCG | 0.0482
19 | AGACAACG | 0.029
24 | CACTAAGG | -0.0433

# Next part

row,Sequence,PBM E-score
1,CAATGACC,-0.195
2,GCGTGATA,-0.029
3,CATTGTTC,0.0837
4,GCTATTGA,-0.0333
5,AAAGTGCC,-0.13
6,AATAGCCG,0.229
7,ACTTCATA,-0.0295
8,ACAGTGCA,0.1
9,CACGGATA,0.332
10,GTTGCTTA,9e-05
11,AACTTTGC,0.0603
12,CGAGTTTA,0.109
13,AACATCCG,0.381
14,GCGTGTTA,-0.201
15,CCACTTTA,-0.176
16,CCAAATTA,0.134
17,AAACCGAA,0.233
18,CCCTAACG,-0.0118
19,ACCATCGC,0.0808
20,ACTTTTGA,0.0708
21,ACAATACG,0.0985
22,CGACTTCA,0.029
23,ACACACTG,-0.139
24,ACTGCAAG,-0.18
25,CTGCCAGC,-0.0493

row,Sequence,PBM E-score
1,CCAGAGTA,-0.0969
2,GGAGAGTA,-0.072
3,TCTTAGAA,0.282
4,CACTTATA,0.00196
5,AATCCACT,0.106
6,GCCTCGCA,-0.306
7,CATGTAAG,0.0168
8,CTAAGGCC,-0.0325
9,ACGTGTCT,-0.249
10,CCGAGGAA,0.265
11,AGGATTGG,-0.0536
12,CCCAACCG,-0.0966
13,CACAAGTA,-0.128
14,AACCGCTC,-0.0977
15,AGAGATCG,0.00172
16,AGAAGCAA,0.0666
17,ACAAATAG,0.145
18,CACCCCAA,-0.136
19,CCCGTTTA,0.0848
20,AAATCGTT,0.0706
21,CCAGGCAG,-0.111
22,CCCTGCCA,-0.059
23,CAGTCAGA,-0.212
24,CCGGGGGC,0.0635
25,ACAGAGCT,-0.214

row,Sequence,PBM E-score
1,CCGTATAA,0.252
2,ACGTTTTA,0.0304
3,GACTATAC,0.0413
4,TACCTTAA,0.0713
5,GTGTAAAA,0.0916
6,ATGCGGGA,0.234
7,CTCCTATC,-0.228
8,ATTTTAAA,0.331
9,AAGTAGGT,-0.161
10,GGTATTGA,-0.0533
11,GCCTTTAC,0.00277
12,AATACACT,0.186
13,GGTCTATA,-0.16
14,CTTGCCAC,-0.116
15,GTTGGGCA,-0.143
16,AGTGCTTA,-0.141
17,AGTGGGCC,-0.325
18,ATGTTCTG,0.0622
19,CCATTCCG,0.134
20,TCAAACAA,0.226
21,CTTTGAAC,0.0199
22,AAGTCAAG,-0.273

# Copied from the list:
# PBM E-score, CCGTATAA reads 0.252
# PBM E-score, CTCCTATC reads -0.228
